Experimental findings from PubChem BioAssay AID2685 (National Center for Advancing Translational Sciences (NCATS), 2010) are described below.

This is one part of the list. Shown are side measurements of this screen, not its main read-out; they come without a call. The list favours compounds with an active or inconclusive main result. Words in brackets tell the shape of the fitted curve; partial curves, single points and poor fits give uncertain potencies.

A short description of this experiment: qHTS Assay for Lipid Storage Modulators in Drosophila S3 Cells.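 As to cell number change: cells counted by Cell Tracker Red CMTPX staining in the red channel.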 The conditions noted are these: BODIPY lipid droplet fluorescence, 18-24 h; for cell number change: measured here: cell count max response, cells fed with added oleic acid. An outline of the steps:
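Drosophila S3 cells loaded with oleic acid (400 uM, as added) and compounds at several concentrations; lipid droplets imaged by 488-nm laser-scanning cytometry, 500–530 nm intensity and object ratio to cell channel. Percent activity normalized to 20 uM Triacsin C.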

Where [1] appears, read: measured here: lipid fluorescence (Fed channel) AC50, cells fed with added oleic acid.
Where [2] appears, read: measured here: cell number channel AC50, cells fed with added oleic acid.

With `CCn1c(O)c(/C=N/n2cnnc2)sc1=S`, the cell number change is -11.3%. In addition, under setting [1], the AC50 is 20.6 µM [falling, single point].
In the case of `CN(c1ccc(C(=O)NCCSC(C)(C)C)cc1)S(=O)(=O)c1ccccc1`, the cell number change is -36.4%. Further, the concentration at half-maximal activity (AC50) under setting [2] was 23.1 µM [falling, single point]. Besides, the half-maximal activity concentration (AC50) under setting [1] was 29.1 µM [falling, single point].
With `CCOC(=O)CSc1nnc(CSc2nc3ccccc3c(=O)[nH]2)n1-c1ccccc1`, the cell number change turned out to be 5.61%. The AC50 under setting [1] is 1.03 µM [falling, full curve, poor fit].
With `O=C(/C=C/c1cccnc1)c1ccc(F)c(F)c1`, under setting [1], the AC50 was 11.6 µM [falling, single point].
In the case of `COc1ccc(C2Nc3ccccc3C(=O)N2NS(=O)(=O)c2ccc(C)cc2)c(OC)c1` (centres undefined), the cell number change was found to be 6.67%.
In the case of `O=C(CCN1C(=O)/C(=C\c2cccs2)SC1=S)NC1=NCCS1`, the cell number change was found to be 12.5%. The AC50 under setting [1] is 0.164 µM [falling, full curve].
Take `COc1ccc(Nc2nc3ccc(C)cn3c(=O)c2/C=N/O)cc1`: the concentration at half-maximal activity (AC50) is 0.092 µM [rising, full curve] under setting [2] and 0.116 µM [rising, partial curve, poor fit] under setting [1].
`CCN(CC)C(=O)CSc1nc2c(sc(=S)n2-c2ccccc2)c(=O)n1-c1ccc(OC)c(OC)c1`: the cell number change was -21.3%. Also, under setting [1], the half-maximal activity concentration (AC50) was 6.51 µM [rising, single point].
With `O=C(Cc1coc2ccc3ccccc3c12)Nc1nnc(C2CC2)s1`, the cell number change was -13.1%. Further, the AC50 under setting [1] was 6.51 µM [falling, single point].
Take `O=C(COC(=O)c1cccnc1Nc1cccc(C(F)(F)F)c1)NCCN1C(=O)CSC1=O`: the cell number change is -24.1%. The AC50 under setting [1] is 29.1 µM [rising, single point].
As for `O=C(CSc1n[nH]c(=O)[nH]c1=O)NC1CCCCC1`, the cell number change came to 5.99%. Further, the AC50 under setting [1] is 6.51 µM [rising, single point].
For `CC1CCCCN1C(=O)CSc1nnc(-c2cccnc2)n1C1CCCCC1` (centres undefined), the cell number change was found to be 6.95%.
`O=C(NNc1nc2ccccc2s1)C1CC1`: the cell number change stood at 189%. Under setting [2], the concentration at half-maximal activity (AC50) was 29.1 µM [rising, partial curve, poor fit]. The AC50 under setting [1] is 20.6 µM [rising, partial curve].
As to `COc1ccc(S(=O)(=O)N(C)CC(=O)NC2CCCC2)cc1OC`, the cell number change was -0.166%.
With `OCCNc1nc(Nc2ccccc2)nc(Nc2ccccc2)n1`, the cell number change amounted to 19.1%. Also, under setting [1], the AC50 was 29.1 µM [rising, single point].
As for `CN(O)/C=N/C(=S)Nc1ccc(Cl)cc1Cl`, the cell number change was -11.5%. The AC50 under setting [1] is 4.11 µM [falling, single point].
As to `CC(C)NC(=O)Cc1ccc(Br)cc1`, the cell number change was -48.6%. Moreover, the AC50 under setting [2] was 6.51 µM [falling, partial curve, poor fit]. For the same compound, under setting [1], the AC50 was 29.1 µM [falling, single point].
As for `O=C(COC(=O)CCc1nc2ccccc2s1)Nc1nc(-c2ccccc2)cs1`, the cell number change was -48.6%. Besides, the AC50 under setting [2] is 29.1 µM [falling, partial curve, poor fit]. Further, the concentration at half-maximal activity (AC50) under setting [1] was 6.51 µM [falling, partial curve].
As for `CCOc1ncccc1C(=O)Nc1nnc(C(CC)CC)s1`, under setting [2], the AC50 is 0.00461 µM [falling, full curve, poor fit].
As for `C=CCN(CC=C)S(=O)(=O)c1ccc(NC(=S)NC(=O)/C=C/c2ccc(C)cc2)cc1`, the AC50 reads like this: under setting [2], 0.366 µM [rising, full curve, poor fit]; under setting [1], 20.6 µM [rising, single point].
`CCCCN(Cc1nc2ccccc2c(=O)[nH]1)C(=O)CN1C(=O)NC2(CCCCC2)C1=O`: the cell number change came out at 1.71%. For the same compound, under setting [1], the concentration at half-maximal activity (AC50) is 32.6 µM [rising, single point].
`COc1cc(Br)c(/C=C/c2ccc3cccc(O)c3n2)cc1OC`: the cell number change is -11.7%. For the same compound, under setting [1], the AC50 was 18.4 µM [falling, single point].
For `Cc1cccc(NC(=O)c2cccc(NS(=O)(=O)c3ccc(Cl)cc3)c2)c1`, the cell number change is -0.959%.
As to `Cc1cc(NC(=O)c2cnn3cccnc23)n(-c2ccccc2)n1`, the AC50 reads like this: under setting [2], 1.3 µM [rising, full curve]; under setting [1], 0.58 µM [rising, single point].
As for `O=C(CSCc1ccc(Cl)cc1)Nc1ccc(S(=O)(=O)N2CCOCC2)cc1`, the cell number change is -28.2%. Moreover, the AC50 under setting [1] is 5.8 µM [falling, partial curve].
As for `CCOC(=O)c1cc(-c2ccccc2)nc2c1c(C)nn2-c1ccccn1`, the cell number change amounted to 10.4%. Also, the AC50 under setting [2] is 0.146 µM [rising, full curve]. Besides, the AC50 under setting [1] is 0.411 µM [rising, partial curve, poor fit].
Regarding `C=CCn1c(O)c(CN2CCOCC2)c(C)c(C#N)c1=O`, the cell number change is 30.4%. In addition, the concentration at half-maximal activity (AC50) under setting [2] is 1.64 µM [rising, single point]. Moreover, the half-maximal activity concentration (AC50) under setting [1] is 29.1 µM [falling, single point].
With `O=C(NN1CC(=O)N(c2cc(Cl)cc(Cl)c2)CC1=O)c1cccs1`, the cell number change is -42.4%. Also, under setting [2], the half-maximal activity concentration (AC50) was 16.4 µM [falling, partial curve]. In addition, the concentration at half-maximal activity (AC50) under setting [1] was 0.651 µM [falling, single point].
With `Cc1ccc(Cn2c(-n3nc(C)cc3C)nc3c2c(=O)[nH]c(=O)n3C)cc1`, under setting [2], the half-maximal activity concentration (AC50) was 0.00461 µM [rising, full curve, poor fit].
Consider `O=C(NCc1ccco1)c1ccc2ccccc2c1`, for which the AC50 under setting [1] is 2.31 µM [falling, partial curve].
With `COc1ccccc1NC(=O)CSc1ccc(-c2ccco2)nn1`, the cell number change is 9.25%. Also, the AC50 under setting [1] was 0.517 µM [rising, full curve, poor fit].
`[O-][n+]1ccccc1SCc1ccccc1`: the cell number change is 2.97%. The concentration at half-maximal activity (AC50) under setting [1] is 0.731 µM [falling, full curve].
For the compound `O=C(O)CSCC(=O)Nc1cccc(C(F)(F)F)c1`, the cell number change was -35.1%. In addition, under setting [2], the half-maximal activity concentration (AC50) was 0.731 µM [falling, full curve]. Further, the AC50 under setting [1] was 3.66 µM [falling, full curve].
As for `COc1ccc(OC)c(-c2csc(NC(=O)CSc3ccc([N+](=O)[O-])cc3)n2)c1`, the cell number change was -6.26%. Moreover, the AC50 under setting [1] was 9.2 µM [rising, partial curve].
On to `S=C(Nc1cccc(Cl)c1)NC1CCCCC1`, for which the cell number change is 8.97%. The AC50 under setting [1] was 2.31 µM [rising, partial curve].
Turning to `c1cncc(-c2nc(N3CCOCC3)c3c4c(sc3n2)CCC4)c1`, the cell number change worked out at 36.6%. Moreover, the AC50 under setting [2] is 0.116 µM [rising, full curve, poor fit]. The half-maximal activity concentration (AC50) under setting [1] is 11.6 µM [rising, partial curve, poor fit].
On to `Cn1c(-c2ccncc2)nc2ccccc21`, for which the cell number change came to 10.6%.

The term AC50 denotes the midpoint of the concentration-response curve, whichever way the signal moves. The low end stands for greater potency, the high end for weaker potency.
